This passage reports binding signal results from publication PMC7862700.

Only a part is listed here, and it is no random draw. At the low end of the ranking the order means little.

This experiment concerns the target T1, ELK3 (UniProt P41970).
T1 sequence: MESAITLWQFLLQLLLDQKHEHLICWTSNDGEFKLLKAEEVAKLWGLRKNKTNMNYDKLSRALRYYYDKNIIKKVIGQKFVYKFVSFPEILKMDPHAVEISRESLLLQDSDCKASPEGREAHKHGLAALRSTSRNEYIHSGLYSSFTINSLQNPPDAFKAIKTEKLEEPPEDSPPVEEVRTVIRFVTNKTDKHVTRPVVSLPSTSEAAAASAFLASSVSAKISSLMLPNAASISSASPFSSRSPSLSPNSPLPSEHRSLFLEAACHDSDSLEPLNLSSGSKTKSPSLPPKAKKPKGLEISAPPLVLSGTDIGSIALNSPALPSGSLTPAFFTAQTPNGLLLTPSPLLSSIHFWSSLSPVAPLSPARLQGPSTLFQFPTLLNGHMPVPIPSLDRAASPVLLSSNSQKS
Nature of the experiment: DAPPL (digital affinity profiling via proximity ligation, sequencing). The following applies: 10 mM Tris-HCl pH 7.5, 50 mM NaCl, 1 mM DTT, 4% glycerol, room temperature, 30 min; GST-TFs on glutathione beads, 16-mer random dsDNA library, 0.1% …; high values mean tight binding; double strand, one strand shown; scale: fold enrichment (6-mer frequency, TF over GST control).
In turn, TAAAAC gave a binding signal of 1.19.

TATTCG yielded a binding signal of 0.974.

Turning to CTTGAC, the binding signal came out at 1.23.

For the sequence TGTACT, the binding signal was 1.35.

In the case of GAATTC, the binding signal came to 1.38.

As for TTTACG, the binding signal turned out to be 1.27.

With CTCGTA, the binding signal came out at 1.36.

CGATAT displayed a binding signal of 1.06.

With ATTAGC, the binding signal is 1.09.

Sequence GTACAT showed a binding signal of 1.44.

In turn, GATTAT came in with a binding signal of 1.07.

For CCGATT, the binding signal was determined as 1.29.

TTCACT returned a binding signal of 1.37.

The sequence TATGGA yielded a binding signal of 1.12.

In the case of AGCTCC, the binding signal came to 1.17.

TGTTTG: the binding signal is 1.29.

On to GTATGC, for which the binding signal stood at 1.13.

Consider CACACT, for which the binding signal worked out at 1.24.

In the case of AATCCC, the binding signal stood at 1.13.

Take CTGCCG: the binding signal was 1.27.

Take GGCTCT: the binding signal worked out at 1.42.

AATCAT yielded a binding signal of 0.998.

GTTCTT returned a binding signal of 1.35.

As to ACCAAC, the binding signal was 1.18.

As for ATTCCG, the binding signal was found to be 1.78.

Turning to ATCGTC, the binding signal worked out at 0.996.

In turn, GCTCTG had a binding signal of 0.973.

CCAATG: the binding signal was 1.08.

Consider TTAACG, for which the binding signal is 1.32.

For the sequence TACGCC, the binding signal worked out at 1.23.

AAAAGG displayed a binding signal of 0.986.

Sequence CGCTTC yielded a binding signal of 2.29.

CTTTTC showed a binding signal of 1.23.

As for CCCCCG, the binding signal was 1.07.

ATCACT gave a binding signal of 1.18.

As to CTGTTA, the binding signal came out at 1.32.

Turning to TACGAT, the binding signal was determined as 1.09.

In the case of CATTCC, the binding signal is 1.3.

Take CCGCAC: the binding signal stood at 1.52.
